Assay in all cases: proximity labelling; BioID2 fused to the N-terminus of UCH-L1, KMS11 cells pulsed with biotin, lysed, streptavidin retrieval and proteomic identification; duplicate experiments; compared with BioID2 alone
Assay [1] concerns the target BioID2-UCHL1 C220S (UniProt P09936).
For assay [2], the target named is BioID2-UCHL1 (wild type) (UniProt P09936).
Assay [3] addresses BioID2-UCHL1 C220S (UniProt P09936). This is another data set of the same source.
Assay [4] deals with BioID2-UCHL1 (wild type) (UniProt P09936). The source holds these as a separate data set.

By UniProt entry, the sequences of proteins in these tests, tags left out. Where a name states a change or a piece, a line headed by the entry shows the natural chain unless it says otherwise.
UniProt P09936: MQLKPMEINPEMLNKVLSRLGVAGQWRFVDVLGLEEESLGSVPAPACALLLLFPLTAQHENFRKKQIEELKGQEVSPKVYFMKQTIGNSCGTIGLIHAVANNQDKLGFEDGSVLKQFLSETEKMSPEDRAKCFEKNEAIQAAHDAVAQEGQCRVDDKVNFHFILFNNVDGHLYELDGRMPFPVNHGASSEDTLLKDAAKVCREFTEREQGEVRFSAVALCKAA
UniProt P41091: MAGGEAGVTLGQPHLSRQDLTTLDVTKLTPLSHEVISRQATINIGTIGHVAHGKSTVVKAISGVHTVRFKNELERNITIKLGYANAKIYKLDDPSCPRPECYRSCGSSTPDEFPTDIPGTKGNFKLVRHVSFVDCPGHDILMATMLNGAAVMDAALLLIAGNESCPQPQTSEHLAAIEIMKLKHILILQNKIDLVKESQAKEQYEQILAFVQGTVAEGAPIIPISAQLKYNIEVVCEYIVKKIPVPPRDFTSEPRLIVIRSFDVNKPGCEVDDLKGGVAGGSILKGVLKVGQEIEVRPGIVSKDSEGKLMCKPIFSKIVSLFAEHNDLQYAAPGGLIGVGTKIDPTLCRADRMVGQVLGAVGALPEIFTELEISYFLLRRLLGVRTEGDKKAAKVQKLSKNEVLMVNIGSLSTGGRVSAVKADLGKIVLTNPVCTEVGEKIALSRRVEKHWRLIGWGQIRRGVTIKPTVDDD
UniProt P55884: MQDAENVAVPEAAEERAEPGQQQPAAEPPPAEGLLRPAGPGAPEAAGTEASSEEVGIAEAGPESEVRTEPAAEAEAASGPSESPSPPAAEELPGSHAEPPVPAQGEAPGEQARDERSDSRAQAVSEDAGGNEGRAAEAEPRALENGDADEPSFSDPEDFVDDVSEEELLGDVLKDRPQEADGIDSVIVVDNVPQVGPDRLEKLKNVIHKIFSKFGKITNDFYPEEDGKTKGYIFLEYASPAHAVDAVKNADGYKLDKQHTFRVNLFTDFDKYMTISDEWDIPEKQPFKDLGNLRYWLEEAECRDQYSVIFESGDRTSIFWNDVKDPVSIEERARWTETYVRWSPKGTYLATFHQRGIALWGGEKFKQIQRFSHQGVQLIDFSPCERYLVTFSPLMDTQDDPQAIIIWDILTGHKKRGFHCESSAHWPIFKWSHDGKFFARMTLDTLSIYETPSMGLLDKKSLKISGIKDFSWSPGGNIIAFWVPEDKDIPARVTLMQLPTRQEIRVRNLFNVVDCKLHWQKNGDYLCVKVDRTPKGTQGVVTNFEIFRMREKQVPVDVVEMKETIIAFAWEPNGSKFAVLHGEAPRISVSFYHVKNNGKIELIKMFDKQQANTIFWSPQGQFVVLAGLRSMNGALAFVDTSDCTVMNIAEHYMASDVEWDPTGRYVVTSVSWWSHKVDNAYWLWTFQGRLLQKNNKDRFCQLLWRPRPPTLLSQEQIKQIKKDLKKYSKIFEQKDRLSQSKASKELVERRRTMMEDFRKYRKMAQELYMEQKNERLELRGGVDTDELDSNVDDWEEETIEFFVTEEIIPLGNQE
UniProt O15372: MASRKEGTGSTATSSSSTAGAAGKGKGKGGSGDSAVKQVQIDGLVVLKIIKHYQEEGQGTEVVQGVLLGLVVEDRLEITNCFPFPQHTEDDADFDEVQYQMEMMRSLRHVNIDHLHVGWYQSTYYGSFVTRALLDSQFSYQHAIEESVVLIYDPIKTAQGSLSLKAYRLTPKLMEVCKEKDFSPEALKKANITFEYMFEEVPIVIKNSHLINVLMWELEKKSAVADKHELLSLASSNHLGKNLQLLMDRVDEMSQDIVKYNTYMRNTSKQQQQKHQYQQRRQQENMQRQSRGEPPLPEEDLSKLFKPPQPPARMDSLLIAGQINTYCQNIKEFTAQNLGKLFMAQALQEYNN
UniProt Q04637: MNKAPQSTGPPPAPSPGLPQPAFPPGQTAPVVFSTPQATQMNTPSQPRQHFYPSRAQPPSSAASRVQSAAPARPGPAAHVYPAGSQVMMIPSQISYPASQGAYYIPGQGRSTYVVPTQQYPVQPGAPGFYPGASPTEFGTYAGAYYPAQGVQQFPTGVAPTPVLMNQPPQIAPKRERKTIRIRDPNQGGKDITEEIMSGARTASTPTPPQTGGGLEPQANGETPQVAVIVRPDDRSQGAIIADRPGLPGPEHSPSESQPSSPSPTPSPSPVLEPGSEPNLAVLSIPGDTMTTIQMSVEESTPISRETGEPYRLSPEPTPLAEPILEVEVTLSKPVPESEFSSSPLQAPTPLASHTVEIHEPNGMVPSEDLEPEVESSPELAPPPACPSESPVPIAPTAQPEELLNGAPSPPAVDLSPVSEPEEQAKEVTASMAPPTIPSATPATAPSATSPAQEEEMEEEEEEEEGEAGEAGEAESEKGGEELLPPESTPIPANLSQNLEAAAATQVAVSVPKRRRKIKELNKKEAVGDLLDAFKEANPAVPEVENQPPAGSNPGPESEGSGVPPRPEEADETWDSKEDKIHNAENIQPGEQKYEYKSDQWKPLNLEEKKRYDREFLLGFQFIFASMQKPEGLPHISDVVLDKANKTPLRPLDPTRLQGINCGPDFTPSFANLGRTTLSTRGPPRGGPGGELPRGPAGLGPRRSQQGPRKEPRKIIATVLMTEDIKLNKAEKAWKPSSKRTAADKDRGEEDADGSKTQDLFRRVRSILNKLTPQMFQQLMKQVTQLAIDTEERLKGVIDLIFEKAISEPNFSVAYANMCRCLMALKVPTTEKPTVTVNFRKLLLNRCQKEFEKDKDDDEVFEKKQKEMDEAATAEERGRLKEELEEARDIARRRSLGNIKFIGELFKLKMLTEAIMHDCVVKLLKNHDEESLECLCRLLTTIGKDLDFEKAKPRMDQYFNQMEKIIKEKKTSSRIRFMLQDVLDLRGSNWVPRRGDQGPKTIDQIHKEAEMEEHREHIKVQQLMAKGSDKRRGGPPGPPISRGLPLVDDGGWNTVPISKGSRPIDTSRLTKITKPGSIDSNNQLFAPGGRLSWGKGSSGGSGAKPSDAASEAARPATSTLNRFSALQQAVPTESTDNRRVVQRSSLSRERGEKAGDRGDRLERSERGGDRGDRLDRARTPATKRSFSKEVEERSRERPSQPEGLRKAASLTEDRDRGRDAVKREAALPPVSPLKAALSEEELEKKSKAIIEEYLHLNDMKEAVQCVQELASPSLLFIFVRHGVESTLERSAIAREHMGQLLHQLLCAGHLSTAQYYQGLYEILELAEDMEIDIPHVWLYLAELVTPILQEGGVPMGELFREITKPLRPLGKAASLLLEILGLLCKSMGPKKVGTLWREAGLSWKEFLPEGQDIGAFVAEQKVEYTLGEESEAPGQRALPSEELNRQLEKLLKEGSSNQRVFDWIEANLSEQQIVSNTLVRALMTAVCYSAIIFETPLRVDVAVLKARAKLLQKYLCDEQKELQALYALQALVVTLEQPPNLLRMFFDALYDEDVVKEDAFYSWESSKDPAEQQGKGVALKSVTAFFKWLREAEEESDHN
UniProt P78344: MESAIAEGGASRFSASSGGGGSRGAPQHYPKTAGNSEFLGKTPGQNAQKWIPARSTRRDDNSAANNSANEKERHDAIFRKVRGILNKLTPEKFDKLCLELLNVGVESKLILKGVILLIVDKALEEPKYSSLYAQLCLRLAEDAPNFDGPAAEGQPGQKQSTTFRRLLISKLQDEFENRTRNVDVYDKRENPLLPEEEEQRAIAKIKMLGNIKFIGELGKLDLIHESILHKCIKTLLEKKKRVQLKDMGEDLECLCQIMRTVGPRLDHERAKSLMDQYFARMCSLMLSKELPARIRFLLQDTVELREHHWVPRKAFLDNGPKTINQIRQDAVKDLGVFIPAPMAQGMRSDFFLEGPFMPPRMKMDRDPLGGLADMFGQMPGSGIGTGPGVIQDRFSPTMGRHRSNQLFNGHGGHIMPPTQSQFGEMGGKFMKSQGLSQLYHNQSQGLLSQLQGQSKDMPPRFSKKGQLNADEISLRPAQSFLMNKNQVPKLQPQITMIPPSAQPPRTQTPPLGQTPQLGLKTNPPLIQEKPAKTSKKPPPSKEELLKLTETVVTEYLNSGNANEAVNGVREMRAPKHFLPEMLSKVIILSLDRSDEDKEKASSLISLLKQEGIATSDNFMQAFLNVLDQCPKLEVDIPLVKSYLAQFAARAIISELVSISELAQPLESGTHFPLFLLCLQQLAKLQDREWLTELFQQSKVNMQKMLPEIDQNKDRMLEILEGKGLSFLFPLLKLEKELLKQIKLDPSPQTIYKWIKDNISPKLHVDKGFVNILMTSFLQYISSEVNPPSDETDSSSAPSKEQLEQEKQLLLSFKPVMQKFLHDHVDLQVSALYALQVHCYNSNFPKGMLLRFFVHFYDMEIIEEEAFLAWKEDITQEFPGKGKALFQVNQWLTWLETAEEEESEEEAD
UniProt O43432: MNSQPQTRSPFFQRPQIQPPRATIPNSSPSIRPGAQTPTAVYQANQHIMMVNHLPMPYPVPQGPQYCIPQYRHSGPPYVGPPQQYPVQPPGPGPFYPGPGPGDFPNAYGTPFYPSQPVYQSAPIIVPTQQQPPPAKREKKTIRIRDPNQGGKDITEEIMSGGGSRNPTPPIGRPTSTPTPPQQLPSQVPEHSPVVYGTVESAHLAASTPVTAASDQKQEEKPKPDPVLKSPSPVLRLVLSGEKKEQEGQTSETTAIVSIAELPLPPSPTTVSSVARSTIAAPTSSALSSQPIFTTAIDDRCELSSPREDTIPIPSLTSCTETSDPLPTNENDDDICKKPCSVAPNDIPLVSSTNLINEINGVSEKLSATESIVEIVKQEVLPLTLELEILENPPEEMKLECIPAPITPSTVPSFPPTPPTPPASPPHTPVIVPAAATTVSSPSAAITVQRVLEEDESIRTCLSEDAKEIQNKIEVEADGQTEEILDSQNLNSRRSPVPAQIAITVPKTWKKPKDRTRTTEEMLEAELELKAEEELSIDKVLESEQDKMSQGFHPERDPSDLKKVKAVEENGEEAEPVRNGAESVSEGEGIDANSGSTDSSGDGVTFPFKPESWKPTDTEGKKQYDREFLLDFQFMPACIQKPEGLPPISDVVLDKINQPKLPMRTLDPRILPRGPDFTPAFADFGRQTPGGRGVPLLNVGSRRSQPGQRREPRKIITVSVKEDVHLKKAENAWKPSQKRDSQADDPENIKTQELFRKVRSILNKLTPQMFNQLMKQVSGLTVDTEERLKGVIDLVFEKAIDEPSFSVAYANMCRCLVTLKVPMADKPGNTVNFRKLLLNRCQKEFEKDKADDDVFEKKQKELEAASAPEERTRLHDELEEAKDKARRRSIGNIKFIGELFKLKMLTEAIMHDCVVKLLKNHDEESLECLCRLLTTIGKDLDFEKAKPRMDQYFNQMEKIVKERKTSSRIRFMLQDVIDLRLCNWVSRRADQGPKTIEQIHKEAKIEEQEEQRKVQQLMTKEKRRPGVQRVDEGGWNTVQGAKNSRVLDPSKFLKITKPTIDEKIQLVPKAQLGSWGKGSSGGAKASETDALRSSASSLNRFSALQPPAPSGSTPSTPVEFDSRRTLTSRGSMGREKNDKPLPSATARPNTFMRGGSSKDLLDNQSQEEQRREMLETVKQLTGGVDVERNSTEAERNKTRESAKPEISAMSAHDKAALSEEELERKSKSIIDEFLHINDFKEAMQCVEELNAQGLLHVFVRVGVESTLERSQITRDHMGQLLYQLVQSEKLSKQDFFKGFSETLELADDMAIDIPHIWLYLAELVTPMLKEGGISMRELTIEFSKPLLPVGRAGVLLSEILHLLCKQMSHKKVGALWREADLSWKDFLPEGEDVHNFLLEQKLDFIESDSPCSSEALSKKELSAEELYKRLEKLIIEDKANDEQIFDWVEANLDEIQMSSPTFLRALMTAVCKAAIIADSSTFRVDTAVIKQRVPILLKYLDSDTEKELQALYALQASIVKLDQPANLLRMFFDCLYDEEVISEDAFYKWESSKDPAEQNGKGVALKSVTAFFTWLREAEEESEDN
UniProt P11940: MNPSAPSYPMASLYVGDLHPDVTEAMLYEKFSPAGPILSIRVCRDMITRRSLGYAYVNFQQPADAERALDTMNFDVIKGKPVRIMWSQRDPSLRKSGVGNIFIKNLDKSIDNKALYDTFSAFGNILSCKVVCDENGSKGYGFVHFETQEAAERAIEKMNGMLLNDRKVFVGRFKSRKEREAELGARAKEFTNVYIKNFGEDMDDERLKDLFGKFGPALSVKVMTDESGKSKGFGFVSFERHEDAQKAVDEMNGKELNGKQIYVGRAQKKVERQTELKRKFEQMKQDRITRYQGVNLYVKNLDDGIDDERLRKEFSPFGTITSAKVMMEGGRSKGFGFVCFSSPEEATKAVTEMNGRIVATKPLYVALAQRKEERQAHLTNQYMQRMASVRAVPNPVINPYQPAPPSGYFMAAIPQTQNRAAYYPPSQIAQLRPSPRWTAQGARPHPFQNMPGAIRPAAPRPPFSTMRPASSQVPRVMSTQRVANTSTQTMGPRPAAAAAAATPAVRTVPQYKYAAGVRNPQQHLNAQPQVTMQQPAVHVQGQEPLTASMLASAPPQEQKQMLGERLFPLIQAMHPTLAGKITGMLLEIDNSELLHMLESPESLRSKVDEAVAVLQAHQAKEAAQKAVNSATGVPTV

The values that follow come from paper PMC6904616.

Read-outs that look alike come from different tables or passages of the source. Results are given in words; binding and its absence hold for the method and conditions named. Binding seen in cells or lysates may run through a third protein. Here binding means that the protein was enriched with, or labelled near, the bait; the list need not be complete.

As for EIF2S3 (from UniProt P41091 1-472), the binding entry in assay [1] and in assay [2] was “binds” throughout.
As for EIF3B (from UniProt P55884 1-814), the binding result in assay [2] is given as “binds”.
For EIF3G (from UniProt O75821 1-320), the binding result in assay [1] and in assay [2] was “binds” each time.
As to EIF3H (from UniProt O15372 1-352), the binding entry in assay [2] is on record as “binds”.
As for EIF4G1 (from UniProt Q04637 1-1599), the binding result in assay [1] and in assay [2] was “binds” throughout.
Consider EIF4G2 (from UniProt P78344 1-907), for which the binding entry in assay [1] and in assay [2] was “binds” each time.
Consider EIF4G3 (from UniProt O43432 1-1585), for which the binding result in assay [1] and in assay [2] was “binds” in each case.
Turning to EIF5A (from UniProt P63241 1-154), the binding result in assay [1] and in assay [2] was “binds” each time.
With PABPC1 (from UniProt P11940 1-636), the binding entry in assay [1] and in assay [2] was “binds” in each case.
In the case of “eIF4A (eIF4F complex subunit) (from UniProt P60842 1-406)”, the binding result in assay [2] was “binds”.

B1: EIF2A (protein, UniProt Q9BY44 1-585)
chain: MAPSTPLLTVRGSEGLYMVNGPPHFTESTVFPRESGKNCKVCIFSKDGTLFAWGNGEKVNIISVTNKGLLHSFDLLKAVCLEFSPKNTVLATWQPYTTSKDGTAGIPNLQLYDVKTGTCLKSFIQKKMQNWCPSWSEDETLCARNVNNEVHFFENNNFNTIANKLHLQKINDFVLSPGPQPYKVAVYVPGSKGAPSFVRLYQYPNFAGPHAALANKSFFKADKVTMLWNKKATAVLVIASTDVDKTGASYYGEQTLHYIATNGESAVVQLPKNGPIYDVVWNSSSTEFCAVYGFMPAKATIFNLKCDPVFDFGTGPRNAAYYSPHGHILVLAGFGNLRGQMEVWDVKNYKLISKPVASDSTYFAWCPDGEHILTATCAPRLRVNNGYKIWHYTGSILHKYDVPSNAELWQVSWQPFLDGIFPAKTITYQAVPSEVPNEEPKVATAYRPPALRNKPITNSKLHEEEPPQNMKPQSGNDKPLSKTALKNQRKHEAKKAAKQEARSDKSPDLAPTPAPQSTPRNTVSQSISGDPEIDKKIKNLKKKLKAIEQLKEQAATGKQLEKNQLEKIQKETALLQELEDLELGI
On to B1, for which the binding result in assay [3] and in assay [4] was “binds” in each case.

B2: DHX29 (protein, UniProt Q7Z478 1-1369)
chain: MGGKNKKHKAPAAAVVRAAVSASRAKSAEAGIAGEAQSKKPVSRPATAAAAAAGSREPRVKQGPKIYSFNSTNDSSGPANLDKSILKVVINNKLEQRIIGVINEHKKQNNDKGMISGRLTAKKLQDLYMALQAFSFKTKDIEDAMTNTLLYGGDLHSALDWLCLNLSDDALPEGFSQEFEEQQPKSRPKFQSPQIQATISPPLQPKTKTYEEDPKSKPKKEEKNMEVNMKEWILRYAEQQNEEEKNENSKSLEEEEKFDPNERYLHLAAKLLDAKEQAATFKLEKNKQGQKEAQEKIRKFQREMETLEDHPVFNPAMKISHQQNERKKPPVATEGESALNFNLFEKSAAATEEEKDKKKEPHDVRNFDYTARSWTGKSPKQFLIDWVRKNLPKSPNPSFEKVPVGRYWKCRVRVIKSEDDVLVVCPTILTEDGMQAQHLGATLALYRLVKGQSVHQLLPPTYRDVWLEWSDAEKKREELNKMETNKPRDLFIAKLLNKLKQQQQQQQQHSENKRENSEDPEESWENLVSDEDFSALSLESANVEDLEPVRNLFRKLQSTPKYQKLLKERQQLPVFKHRDSIVETLKRHRVVVVAGETGSGKSTQVPHFLLEDLLLNEWEASKCNIVCTQPRRISAVSLANRVCDELGCENGPGGRNSLCGYQIRMESRACESTRLLYCTTGVLLRKLQEDGLLSNVSHVIVDEVHERSVQSDFLLIILKEILQKRSDLHLILMSATVDSEKFSTYFTHCPILRISGRSYPVEVFHLEDIIEETGFVLEKDSEYCQKFLEEEEEVTINVTSKAGGIKKYQEYIPVQTGAHADLNPFYQKYSSRTQHAILYMNPHKINLDLILELLAYLDKSPQFRNIEGAVLIFLPGLAHIQQLYDLLSNDRRFYSERYKVIALHSILSTQDQAAAFTLPPPGVRKIVLATNIAETGITIPDVVFVIDTGRTKENKYHESSQMSSLVETFVSKASALQRQGRAGRVRDGFCFRMYTRERFEGFMDYSVPEILRVPLEELCLHIMKCNLGSPEDFLSKALDPPQLQVISNAMNLLRKIGACELNEPKLTPLGQHLAALPVNVKIGKMLIFGAIFGCLDPVATLAAVMTEKSPFTTPIGRKDEADLAKSALAMADSDHLTIYNAYLGWKKARQEGGYRSEITYCRRNFLNRTSLLTLEDVKQELIKLVKAAGFSSSTTSTSWEGNRASQTLSFQEIALLKAVLVAGLYDNVGKIIYTKSVDVTEKLACIVETAQGKAQVHPSSVNRDLQTHGWLLYQEKIRYARVYLRETTLITPFPVLLFGGDIEVQHRERLLSIDGWIYFQAPVKIAVIFKQLRVLIDSVLRKKLENPKMSLENDKILQIITELIKTENN
As for B2, the binding result in assay [3] and in assay [4] was “binds” each time.
